According to publication PMC10786037, “Autoinhibition in the Signal Transducer CIN85 Modulates B Cell Activation” (Journal of the American Chemical Society, 2023):
Results are given in words; binding and its absence hold for the method and conditions named. Some results given as binding are weak or reduced against the parent protein; the word gives no strength. Each block holds one molecule with its values, some of them ahead of it.

Experiments:
CIN85_(1-333) (human) = CIN85_(1-333) (human) (UniProt Q96B97); test: NMR relaxation (TRACT rotational correlation times) and translational diffusion (N-TRO-STE) against protein concentration; protein concentration 0.05 to 1.16 mM; 800 MHz, 298 K; 15N-labelled, perdeuterated protein; both purified
[1] = target: CIN85_(1-333)-R229A (human) (UniProt Q96B97); test: as above
CIN85 SH3C domain = target: T1, CIN85 SH3C domain (human, UniProt Q96B97-1 262-333); test: NMR titration; 15N-labelled isolated SH3 domain titrated with synthetic 14-residue peptide; chemical shift perturbations; KD fitted, error by bootstrap resampling; both purified
T1 construct: the NMR structure PDB 2k9g of SH3C was used to map the shifts; 15N-labelled for NMR; The limits of PDB 2k9g may differ from those of the construct; also called C-terminal SH3 domain
T1 sequence: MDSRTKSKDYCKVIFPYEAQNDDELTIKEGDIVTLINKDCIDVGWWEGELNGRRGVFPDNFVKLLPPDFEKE

binding (CIN85_(1-333) (human)): binds weakly
Molecule: CIN85_(1-333) (from UniProt Q96B97-1 1-333) (domain or fragment)

binding [1]: binds weakly
Molecule: CIN85_(1-333)-R229A (from UniProt Q96B97-1 1-333) (domain or fragment)

binding (CIN85 SH3C domain): no binding (tested: ≫2.45 mM)
B1: CIN85-PRM1 peptide R227A/R229A (residues 219-232) (peptide)
peptide: FKDKPIKLAPASIE
notes: CIN85, human, residues 219-232 with R227A and R229A; also called R227A/R229A mutant peptide; source: synthetic peptide
